The subject of data set [1] is RAD51 + MCPH1 (tag-free). Briefly: Benzonase protection. The settings on record: MCPH1 stabilizes RAD51-ssDNA filament; TPM: 100 mM KCl (150 mM high salt); recombinant protein; label: 5'-32P; single-stranded DNA.
For data set [2], the system named is DMC1 + MCPH1 (tag-free). Briefly: Benzonase protection. The settings on record: MCPH1 stabilizes DMC1-ssDNA filament (less than RAD51); TPM: 100 mM KCl (150 mM high salt); recombinant protein; label: 5'-32P; single-stranded DNA.

The exact form of at least one protein or probe is not confirmed. At least one verdict rests on a figure or table, not on a statement of the authors.

In the case of “TTATGTTCATTTTTTATATCCTTTACTTTATTTTCTCTGTTTATTCATTTACTTATTTTGTATTATCCTTATCTTATTTA [Oligo 1 80-mer ssDNA]”, the binding result in data set [1] and in data set [2] was “binds” each time.

For the origin of these results see PMC7498314.
